From EP4653451A1 (Chengdu New Radiomedicine Technology Co., Ltd., priority 2023, dated 2024)

Assays:
[1] = general procedure: Fmoc solid-phase peptide synthesis; Fmoc-Linker MBHA Resin; preloaded CTC resins (Fmoc-Cys(Trt)-CTC, Fmoc-Beta-HomoCys(Trt)-CTC, Fmoc-Phe-CTC, Fmoc-1Nal-CTC); DIC/HOBt (amino acid : DIC : HOBt = 3 : 3 : 3); conditions: trifluoroacetate
[2] = general procedure: Fmoc solid-phase peptide synthesis; CTC resin; DIC/HOBt (amino acid : DIC : HOBt = 3 : 3 : 3); conditions: whole synthesis, scale 1 mmol, trifluoroacetate, thioether ring, sequence written open
[3] = whole synthesis, thioether ring, sequence written open

Substance	final HPLC purity ([1]; cyclisation step) [%]	other results
PEPTIDE1{[Hex].C.P.P.T.Q.[1Nal].[Beta-homo-Cys].[NHcPen]}|CHEM1{[mXyl]}$PEPTIDE1,CHEM1,2:R3-1:R1|PEPTIDE1,CHEM1,8:R3-1:R2$$$V2.0	99.3	–
PEPTIDE1{[Hex].C.P.P.T.Q.F.[bhCys].D.[am]}|CHEM1{[mXyl]}$PEPTIDE1,CHEM1,2:R3-1:R1|PEPTIDE1,CHEM1,8:R3-1:R2$$$V2.0	98.2	–
PEPTIDE1{[Hex].C.P.P.T.Q.F.[Cys-CH2NHAc]}|CHEM1{[mXyl]}$PEPTIDE1,CHEM1,2:R3-1:R1|PEPTIDE1,CHEM1,8:R3-1:R2$$$V2.0	96.9	–
PEPTIDE1{[Hex].C.P.P.T.Q.[1Nal].[Beta-homo-Cys].[NHPh]}|CHEM1{[mXyl]}$PEPTIDE1,CHEM1,2:R3-1:R1|PEPTIDE1,CHEM1,8:R3-1:R2$$$V2.0	99.5	–
PEPTIDE1{[Hex].C.P.P.T.Q.F.[Cys-CH2NH2]}|CHEM1{[mXyl]}$PEPTIDE1,CHEM1,2:R3-1:R1|PEPTIDE1,CHEM1,8:R3-1:R2$$$V2.0	95.2	–
PEPTIDE1{[Hex].C.P.P.T.Q.[Cha].C}|CHEM1{[mXyl]}$PEPTIDE1,CHEM1,2:R3-1:R1|PEPTIDE1,CHEM1,8:R3-1:R2$$$V2.0	99.1	–
PEPTIDE1{[Hex].C.P.P.T.Q.[1Nal].[bhCys].[NHBn]}|CHEM1{[mXyl]}$PEPTIDE1,CHEM1,2:R3-1:R1|PEPTIDE1,CHEM1,8:R3-1:R2$$$V2.0	97	–
Hex-Cys-Pro-Pro-Thr-Gln-Phe-Cys-CH2NH-(D-beta-HomoAla-tranexamic acid-DOTA) (Cys bridge 2,6-bis(bromomethyl)fluorobenzene) trifluoroacetate	99.4	–
Hexanoyl-(Cys(tMeBn(DOTA-AET))-Pro-D-Pro-Thr-Gln-1Nal-betahomoCys)-OH	–	final HPLC purity [1, 3]: 90.13%
PEPTIDE1{[Nle].C.P.P.T.Q.[1Nal].[Beta-homo-Cys]}|CHEM1{[mXyl]}$PEPTIDE1,CHEM1,2:R3-1:R1|PEPTIDE1,CHEM1,8:R3-1:R2$$$V2.0	98.6	–
PEPTIDE1{[Hex].C.P.P.T.Q.F.[bhCys]}|CHEM1{[mXyl]}$PEPTIDE1,CHEM1,2:R3-1:R1|PEPTIDE1,CHEM1,8:R3-1:R2$$$V2.0	99.3	–
PEPTIDE1{[Hex].C.P.P.T.Q.F.[bhCys]}|CHEM1{[tMeBn(DOTA-AET)]}$PEPTIDE1,CHEM1,2:R3-1:R1|PEPTIDE1,CHEM1,8:R3-1:R2$$$V2.0	–	final HPLC purity ([1]; conjugation step): 99.1%
Hexanoyl-(D-Cys(tMeBn(DOTA-AET))-Pro-Pro-Thr-Gln-1Nal-betahomoCys)-OH	–	final HPLC purity [2]: 95.44%
PEPTIDE1{[Hex].C.P.P.T.Q.[1Nal].[bhCys].[NHPentyl]}|CHEM1{[mXyl]}$PEPTIDE1,CHEM1,2:R3-1:R1|PEPTIDE1,CHEM1,8:R3-1:R2$$$V2.0	99.5	–
PEPTIDE1{[Hex].C.P.P.T.Q.F.C}|CHEM1{[FmXyl]}$PEPTIDE1,CHEM1,2:R3-1:R1|PEPTIDE1,CHEM1,8:R3-1:R2$$$V2.0	99.6	–
PEPTIDE1{[Hex].C.P.P.T.Q.[1Nal].[Beta-homo-Cys].[NHBCP]}|CHEM1{[mXyl]}$PEPTIDE1,CHEM1,2:R3-1:R1|PEPTIDE1,CHEM1,8:R3-1:R2$$$V2.0	98.1	–
PEPTIDE1{[Hex].C.P.P.T.Q.[1Nal].[Beta-homo-Cys].[NHCH2cPen]}|CHEM1{[mXyl]}$PEPTIDE1,CHEM1,2:R3-1:R1|PEPTIDE1,CHEM1,8:R3-1:R2$$$V2.0	99.2	–
PEPTIDE1{[Hex].C.P.P.T.Q.[1Nal].[bhCys].[am]}|CHEM1{[mXyl]}$PEPTIDE1,CHEM1,2:R3-1:R1|PEPTIDE1,CHEM1,8:R3-1:R2$$$V2.0	98.9	–
PEPTIDE1{[Hex].C.P.P.T.Q.[1Nal].[D-betahomoCys]}|CHEM1{[tMeBn(DOTA-AET)]}$PEPTIDE1,CHEM1,2:R3-1:R1|PEPTIDE1,CHEM1,8:R3-1:R2$$$V2.0	–	final HPLC purity ([1]; whole synthesis): 90%
PEPTIDE1{[Hex].C.P.P.T.Q.[1Nal].[Cys-CH2NH-CF3PhPr]}|CHEM1{[tMeBn(DOTA-AET)]}$PEPTIDE1,CHEM1,2:R3-1:R1|PEPTIDE1,CHEM1,8:R3-1:R2$$$V2.0	–	final HPLC purity ([1]; conjugation step): 96.1%
Hexanoyl-(Cys(tMeBn(DOTA-AET))-Pro-Pro-Thr-Gln-D-1Nal-betahomoCys)-OH	–	final HPLC purity [1, 3]: 94.76%
PEPTIDE1{[Hex].C.P.P.T.Q.[1Nal].[Beta-homo-Cys].[NHCH2-4Pyr]}|CHEM1{[mXyl]}$PEPTIDE1,CHEM1,2:R3-1:R1|PEPTIDE1,CHEM1,8:R3-1:R2$$$V2.0	98.3	–
Hexanoyl-(Cys(tMeBn(DOTA-AET))-D-Pro-Pro-Thr-Gln-1Nal-betahomoCys)-OH	–	final HPLC purity [1, 3]: 90.14%
Hexanoyl-(Cys(tMeBn(DOTA-AET))-Pro-Pro-Thr-D-Gln-1Nal-betahomoCys)-OH	–	final HPLC purity [1, 3]: 94.36%
PEPTIDE1{[Hex].C.P.P.T.Q.F.C}|CHEM1{[tMeTriazine(DOTA-AET)]}$PEPTIDE1,CHEM1,2:R3-1:R1|PEPTIDE1,CHEM1,8:R3-1:R2$$$V2.0	–	final HPLC purity ([1]; conjugation step): 98.5%
Hexanoyl-(Cys(tMeBn(DOTA-AET))-Pro-Pro-D-Thr-Gln-1Nal-betahomoCys)-OH	–	final HPLC purity [1, 3]: 92.36%
PEPTIDE1{[Hex].C.P.P.T.Q.[1Nal].[bhCys]}|CHEM1{[tMeBn(DOTA-AET)]}$PEPTIDE1,CHEM1,2:R3-1:R1|PEPTIDE1,CHEM1,8:R3-1:R2$$$V2.0	–	final HPLC purity ([1]; conjugation step): 99.0%

For part of these data: Some peptides are written in HELM: one residue between dots, names in brackets for other building blocks, links after the first $.
